According to paper doi:10.1101/438481:
These are yes or no findings as the source states them, for the method shown. For some assays here: Tags and fused reporters may be left off the sequences shown.

T1: Vps20 (Saccharomyces cerevisiae), Q04272
T1 chain: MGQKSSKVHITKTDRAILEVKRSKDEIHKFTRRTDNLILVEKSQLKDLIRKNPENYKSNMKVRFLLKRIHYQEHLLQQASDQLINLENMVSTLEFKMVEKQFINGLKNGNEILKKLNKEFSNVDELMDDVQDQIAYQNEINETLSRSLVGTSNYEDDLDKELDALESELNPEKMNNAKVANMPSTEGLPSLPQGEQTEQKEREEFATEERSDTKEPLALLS

T2: Vps24 (yeast), P36095
T2 chain: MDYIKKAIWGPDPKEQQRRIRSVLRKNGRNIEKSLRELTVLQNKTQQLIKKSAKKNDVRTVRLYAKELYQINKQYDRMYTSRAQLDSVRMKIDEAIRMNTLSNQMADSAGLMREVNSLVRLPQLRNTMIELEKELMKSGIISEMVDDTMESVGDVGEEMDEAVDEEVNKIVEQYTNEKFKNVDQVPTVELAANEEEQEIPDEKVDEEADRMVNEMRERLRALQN

B1: Vps20, Q04272 1-221 (protein)
chain: T1 chain
B2: Vps24, P36095 1-224 (protein)
chain: T2 chain

Experiments:
[1] = target: T1, Vps20 (Saccharomyces cerevisiae), Q04272; assay: SEC; settings: remark: other sources report otherwise
Vps24 (yeast), P36095 = target: T2, Vps24 (yeast), P36095; assay: SEC; settings: remark: other sources report otherwise

Binder | binding [1] | binding (Vps24 (yeast), P36095)
B1 | no binding | –
B2 | – | no binding
